From PMC7819943, “Rice protein-binding microarrays: a tool to detect cis-acting elements near promoter regions in rice” come the findings set out here.

Sequences of proteins named here, by UniProt entry; tags and fusion partners are left off.
UniProt Q0JBA9, entry or part of it: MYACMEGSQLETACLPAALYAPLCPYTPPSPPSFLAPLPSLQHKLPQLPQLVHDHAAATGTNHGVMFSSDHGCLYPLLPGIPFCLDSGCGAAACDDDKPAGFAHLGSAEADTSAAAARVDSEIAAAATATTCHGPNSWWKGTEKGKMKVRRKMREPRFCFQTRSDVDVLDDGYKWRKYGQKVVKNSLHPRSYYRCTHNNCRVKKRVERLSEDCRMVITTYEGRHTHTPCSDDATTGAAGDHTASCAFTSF

The other results are listed elsewhere or left out.

For the test, the target named is OsWRKY34 (Oryza sativa, UniProt Q0JBA9 1-250). The experiment in a line: protein-binding microarray (RPBM); PBS, 2% BSA, 51.3 ng/ul salmon testes DNA, 50 uM zinc acetate, 200 nM TF, 25 C, 1 h; high values mean tight binding. Particulars: protein: recombinant; tags: N-terminal polyhistidine and DsRed monomer fusion (pET32a); label: CyDye5-dUTP incorporated in the synthesized complementary strand; 3' TTTTT single-stranded linker to array surface; dsDNA, one strand shown. The essentials:
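For the binding signal, per-feature fluorescence intensity was read in arbitrary units on an Axon 4000B scanner. Before scanning, a 2% BSA-blocked custom Agilent array made double-stranded with Cy5-dUTP was washed after 1 h at 25 °C with 200 nM protein and 50 µM zinc acetate. The proteins were Ni–NTA-purified transcription factors with N-terminal polyhistidine and DsRed fusions, expressed in E. coli BL21-CodonPlus.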
As for “CCCTCCCTCCATCCCTTGCTCGCTCGCGCCACAACGTTATCGGAGTCACCTAGTGCAG”, the binding signal is 8620 fluorescence intensity (a.u.).

For “CGGGCGGCGGGTGCGGACTGCGGAGGAGGCTGGCGGGGCACGGAGTCACCTAGTGCAG”, the binding signal was 8630 fluorescence intensity (a.u.).

With “GTTAGGTTGTTTATGAGTTTTTTTTTCACCTATTCGATAACGGAGTCACCTAGTGCAG”, the binding signal is 9000 fluorescence intensity (a.u.).

On to “TTCGTCTCCGTCTCCGTCTCCGTCTCGTCGCCGCCTAATCCGGAGTCACCTAGTGCAG”, for which the binding signal is 13200 fluorescence intensity (a.u.).

For the sequence “TGGTTAAAAAGTCAACGGTGTCATACATTAAAATACGGAGCGGAGTCACCTAGTGCAG”, the binding signal was 16300 fluorescence intensity (a.u.).

For the sequence “CAACTATCTAATTCTATTCATTTTGGTCAAATCTCATCTGCGGAGTCACCTAGTGCAG”, the binding signal was 9510 fluorescence intensity (a.u.).

For the sequence “TCTTCTAATAATGTAATTAGTTAAACCGGTTTTATGTTTTCGGAGTCACCTAGTGCAG”, the binding signal was 8170 fluorescence intensity (a.u.).

In the case of “GTTCGTTACTTATGTTATGTTGCAGGTTGTTCGTCAGATACGGAGTCACCTAGTGCAG”, the binding signal is 10700 fluorescence intensity (a.u.).

“CCTTGCTTTTCCAACTTCTTGTCCATCACCTCCAGTTTCTCGGAGTCACCTAGTGCAG”: the binding signal is 12700 fluorescence intensity (a.u.).

Turning to “ACGATCTCCTCTCTCGGCGCCGCGGCCATCAATCCCGCGGCGGAGTCACCTAGTGCAG”, the binding signal is 8860 fluorescence intensity (a.u.).

With “TTTTATTTTGCTAAAATTGATCCACATCTAGATTTTTATTCGGAGTCACCTAGTGCAG”, the binding signal is 8450 fluorescence intensity (a.u.).

Take “GAAGTTTGCCTTGTCGGCCGTCGTGTCCTTCTGCCGCTAACGGAGTCACCTAGTGCAG”: the binding signal is 10900 fluorescence intensity (a.u.).

For “TAGGTTCTAGATTGTTTTTTCGCTGTTTTTTTTTTATTTTCGGAGTCACCTAGTGCAG”, the binding signal is 13300 fluorescence intensity (a.u.).

Consider “TGCTTGAAGCTCAATGGTCTGGTCTGCAGTTGGCTATCCACGGAGTCACCTAGTGCAG”, for which the binding signal is 9430 fluorescence intensity (a.u.).

As for “CGTTTTATTCCGCGTCTTTCCGGTCTCCTTTCCGAGTCGCCGGAGTCACCTAGTGCAG”, the binding signal is 8450 fluorescence intensity (a.u.).

For the sequence “AACCACGATAAATTCACCGTCCCTCAACTACTCTCAGATACGGAGTCACCTAGTGCAG”, the binding signal was 8790 fluorescence intensity (a.u.).

In the case of “TTCCTTCTGGCTATTGTTCTTTTTATGTTTGTTGGTTGTTCGGAGTCACCTAGTGCAG”, the binding signal was 9270 fluorescence intensity (a.u.).

As to “TTCTTTTTTCACCCTTTTGAGGTATATTTTTGCTCTTACACGGAGTCACCTAGTGCAG”, the binding signal is 8860 fluorescence intensity (a.u.).

For the sequence “TCCTGGGGTTGGTTGGTTGGTTGGGTTATATATCTACCAACGGAGTCACCTAGTGCAG”, the binding signal is 14200 fluorescence intensity (a.u.).

On to “CACCCATCTTCTTCTGTAATTCAAGTTTCGACTGTGCATTCGGAGTCACCTAGTGCAG”, for which the binding signal is 10400 fluorescence intensity (a.u.).

“TATATATTATACCATTAATGACTGATCCTACCCTCTCATACGGAGTCACCTAGTGCAG”: the binding signal was 10700 fluorescence intensity (a.u.).

With “GAATCACAACTGAAACGTACTCCTACCTTTCAACTTTCATCGGAGTCACCTAGTGCAG”, the binding signal is 8410 fluorescence intensity (a.u.).

“AATATCTTGGCCGAATTTTTTGGTTTTTCTCAAATTTTTACGGAGTCACCTAGTGCAG”: the binding signal is 8090 fluorescence intensity (a.u.).

With “ATACTCCTTTTTCTCATGCATAATGCTAATTGTTCGTACACGGAGTCACCTAGTGCAG”, the binding signal is 8330 fluorescence intensity (a.u.).

“TCCACTCCGCTCAACCTTCGCGATTGATTCTTGGATTTCTCGGAGTCACCTAGTGCAG”: the binding signal is 14400 fluorescence intensity (a.u.).

For “ACTGTGTTACCTAACAAACAATGTTTTGAGCACCAATCACCGGAGTCACCTAGTGCAG”, the binding signal is 8330 fluorescence intensity (a.u.).

“TCACTAGGTGTTGTTCTTTTTCAGATTATTCATCAGATTACGGAGTCACCTAGTGCAG”: the binding signal was 9520 fluorescence intensity (a.u.).

As to “AGTGAGAAAATAAATAGTGTCCGTACCGGTTCTTTTTCTTCGGAGTCACCTAGTGCAG”, the binding signal was 8800 fluorescence intensity (a.u.).

Take “AATTTCCTTGTAATTGTTTATATGTCCCGCATTTCAAATACGGAGTCACCTAGTGCAG”: the binding signal was 8090 fluorescence intensity (a.u.).

As to “ATACCGTTTTATTTTGTAATTTACTCTCATCTTTATATAGCGGAGTCACCTAGTGCAG”, the binding signal is 8790 fluorescence intensity (a.u.).

With “GATTCTCACCAGTTGGCTACTCGCTATTTGCTTATTAGAACGGAGTCACCTAGTGCAG”, the binding signal is 8060 fluorescence intensity (a.u.).

As to “ATTTGTATGGGTGCTAGCCGTGTAATTATGCGGTCCACTACGGAGTCACCTAGTGCAG”, the binding signal was 10000 fluorescence intensity (a.u.).

Regarding “GCGCGAAAAAGTCAACAGTGCCACTCATCACCCGACACACCGGAGTCACCTAGTGCAG”, the binding signal was 8920 fluorescence intensity (a.u.).

As to “AATTCCGGGTTTGGCGTGGGTTGCTCTGTGGATACCCATTCGGAGTCACCTAGTGCAG”, the binding signal is 8210 fluorescence intensity (a.u.).

Consider “TGCTTAACACCACGCTTCTGGAAATCTGGATAAACATTTACGGAGTCACCTAGTGCAG”, for which the binding signal was 8290 fluorescence intensity (a.u.).

Take “GATAGGAGTATATGGCATTTCACGCTCAGTTAGCATTCACCGGAGTCACCTAGTGCAG”: the binding signal was 11400 fluorescence intensity (a.u.).

Regarding “GCTCGTATAATATGTTTGATATGTCATTTTAAAGTTTAATCGGAGTCACCTAGTGCAG”, the binding signal was 9160 fluorescence intensity (a.u.).

“GATGTTTATAAATAGCTTATAGTTTGCTATCTACTGTTTTCGGAGTCACCTAGTGCAG”: the binding signal is 9800 fluorescence intensity (a.u.).

For “CGTCCGGTCGCATCCCCTGGCCTGGCCGTCGCCGGCCCGCCGGAGTCACCTAGTGCAG”, the binding signal is 9050 fluorescence intensity (a.u.).

Regarding “CAAATGAACCACTTCTTTATATTCGATTCCTCATTGCTTTCGGAGTCACCTAGTGCAG”, the binding signal is 8390 fluorescence intensity (a.u.).

For the sequence “CCCTCGTTCTCGTTCTTATCTCCAACACCTCTACTACTACCGGAGTCACCTAGTGCAG”, the binding signal was 8990 fluorescence intensity (a.u.).

In the case of “ACCTTATTGATCGTCCATGTTTTCCGGTGAATTAAACCCACGGAGTCACCTAGTGCAG”, the binding signal is 8720 fluorescence intensity (a.u.).
